Laboratory results from article PMC11555385.
Where two headings read alike, the source gives them in different places. No constants are given. Whether binding was seen depends on the method and setting. Binding seen in cells or lysates may run through a third protein. These calls come from enrichment with a bait or labelling near it, and not all partners need be listed.

Amino acid sequences for entries named in this document (tags omitted).
UniProt P07355: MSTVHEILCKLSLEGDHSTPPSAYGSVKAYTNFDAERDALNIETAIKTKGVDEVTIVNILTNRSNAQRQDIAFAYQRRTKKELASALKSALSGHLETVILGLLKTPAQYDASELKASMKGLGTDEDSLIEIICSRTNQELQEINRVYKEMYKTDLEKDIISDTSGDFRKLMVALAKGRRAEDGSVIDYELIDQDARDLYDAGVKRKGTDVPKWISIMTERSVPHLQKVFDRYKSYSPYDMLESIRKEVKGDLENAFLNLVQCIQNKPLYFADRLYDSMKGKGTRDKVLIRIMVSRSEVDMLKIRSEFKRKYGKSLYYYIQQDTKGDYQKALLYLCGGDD

T1: CDC25A (human (endogenous in HeLa)) (UniProt P30304)
T1 sequence: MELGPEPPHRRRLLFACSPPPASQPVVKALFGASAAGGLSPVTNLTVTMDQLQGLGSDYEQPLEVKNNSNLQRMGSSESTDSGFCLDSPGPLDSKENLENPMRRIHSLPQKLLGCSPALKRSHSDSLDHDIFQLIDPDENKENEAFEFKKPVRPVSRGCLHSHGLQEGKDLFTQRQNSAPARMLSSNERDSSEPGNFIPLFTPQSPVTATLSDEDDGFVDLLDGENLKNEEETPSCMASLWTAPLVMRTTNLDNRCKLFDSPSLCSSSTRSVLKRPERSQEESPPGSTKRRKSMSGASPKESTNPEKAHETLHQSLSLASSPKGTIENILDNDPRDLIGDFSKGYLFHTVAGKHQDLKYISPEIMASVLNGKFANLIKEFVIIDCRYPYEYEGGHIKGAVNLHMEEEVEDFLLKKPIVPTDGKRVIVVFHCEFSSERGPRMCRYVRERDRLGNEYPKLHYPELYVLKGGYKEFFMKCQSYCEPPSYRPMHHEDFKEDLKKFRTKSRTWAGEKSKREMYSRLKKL


What was measured:
[1] = molecular target: T1, CDC25A (human (endogenous in HeLa)); assay: affinity purification with mass spectrometry; immunoprecipitation of CDC25A from HeLa cells (50% density and 100%+2Days groups compared), mass spectrometry of the co-precipitated proteins
[2] = molecular target: T1, CDC25A (human (endogenous in HeLa)); assay: as above; remark: listed apart in the source

binding [1]	binding [2]	Molecule
binds		Annexin A2 (from UniProt P07355 1-339)
	binds	Annexin A1 (protein, UniProt P04083 1-346) MAMVSEFLKQAWFIENEEQEYVQTVKSSKGGPGSAVSPYPTFNPSSDVAALHKAIMVKGVDEATIIDILTKRNNAQRQQIKAAYLQETGKPLDETLKKALTGHLEEVVLALLKTPAQFDADELRAAMKGLGTDEDTLIEILASRTNKEIRDINRVYREELKRDLAKDITSDTSGDFRNALLSLAKGDRSEDFGVNEDLADSDARALYEAGERRKGTDVNVFNTILTTRSYPQLRRVFQKYTKYSKHDMNKVLDLELKGDIEKCLTAIVKCATSKPAFFAEKLHQAMKGVGTRHKALIRIMVSRSEIDMNDIKAFYQKMYGISLCQAILDETKGDYEKILVALCGGN
